Test results published in paper PMC9239253.

Chains of the proteins cited; added tags and fusions are not shown.
UniProt Q9H171: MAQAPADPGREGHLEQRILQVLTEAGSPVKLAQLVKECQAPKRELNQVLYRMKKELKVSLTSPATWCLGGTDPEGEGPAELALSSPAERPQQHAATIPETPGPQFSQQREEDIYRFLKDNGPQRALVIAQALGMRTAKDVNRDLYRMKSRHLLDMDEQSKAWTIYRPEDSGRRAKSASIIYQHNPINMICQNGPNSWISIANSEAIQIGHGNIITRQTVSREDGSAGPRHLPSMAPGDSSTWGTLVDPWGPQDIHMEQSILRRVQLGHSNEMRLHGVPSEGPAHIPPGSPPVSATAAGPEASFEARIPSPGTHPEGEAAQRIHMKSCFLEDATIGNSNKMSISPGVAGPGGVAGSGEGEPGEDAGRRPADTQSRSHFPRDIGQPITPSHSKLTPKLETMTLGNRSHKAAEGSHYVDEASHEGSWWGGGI
UniProt Q86VP6: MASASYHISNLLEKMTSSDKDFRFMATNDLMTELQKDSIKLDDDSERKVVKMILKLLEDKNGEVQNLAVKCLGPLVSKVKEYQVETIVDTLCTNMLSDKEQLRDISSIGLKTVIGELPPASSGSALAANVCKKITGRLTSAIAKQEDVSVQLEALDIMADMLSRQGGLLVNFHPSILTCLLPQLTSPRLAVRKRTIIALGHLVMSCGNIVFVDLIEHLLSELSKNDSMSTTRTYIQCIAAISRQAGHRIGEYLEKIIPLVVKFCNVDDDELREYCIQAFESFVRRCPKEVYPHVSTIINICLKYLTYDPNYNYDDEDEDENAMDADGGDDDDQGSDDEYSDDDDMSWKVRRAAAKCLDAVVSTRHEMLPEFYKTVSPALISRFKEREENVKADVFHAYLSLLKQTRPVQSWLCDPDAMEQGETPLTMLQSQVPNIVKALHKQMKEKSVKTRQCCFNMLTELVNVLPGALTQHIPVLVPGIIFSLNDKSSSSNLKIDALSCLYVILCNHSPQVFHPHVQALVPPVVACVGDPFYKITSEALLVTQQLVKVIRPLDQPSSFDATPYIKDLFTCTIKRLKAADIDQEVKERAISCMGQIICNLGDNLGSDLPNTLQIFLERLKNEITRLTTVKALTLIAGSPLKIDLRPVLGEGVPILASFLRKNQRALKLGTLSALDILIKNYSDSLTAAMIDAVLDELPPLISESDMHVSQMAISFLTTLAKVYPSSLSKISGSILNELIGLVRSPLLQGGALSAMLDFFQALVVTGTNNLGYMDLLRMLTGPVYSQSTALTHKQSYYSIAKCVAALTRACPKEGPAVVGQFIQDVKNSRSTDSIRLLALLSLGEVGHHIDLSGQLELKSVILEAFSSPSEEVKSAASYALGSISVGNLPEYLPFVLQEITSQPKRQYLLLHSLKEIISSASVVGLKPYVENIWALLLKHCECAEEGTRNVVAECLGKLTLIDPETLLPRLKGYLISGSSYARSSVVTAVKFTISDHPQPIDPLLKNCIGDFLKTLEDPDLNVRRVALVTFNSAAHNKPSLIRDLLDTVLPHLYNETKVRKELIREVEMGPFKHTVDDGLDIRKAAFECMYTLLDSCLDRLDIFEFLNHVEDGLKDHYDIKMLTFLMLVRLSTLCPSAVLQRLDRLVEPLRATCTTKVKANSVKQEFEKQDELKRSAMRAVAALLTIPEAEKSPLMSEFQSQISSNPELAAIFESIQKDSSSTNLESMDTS
UniProt Q7Z6Z7: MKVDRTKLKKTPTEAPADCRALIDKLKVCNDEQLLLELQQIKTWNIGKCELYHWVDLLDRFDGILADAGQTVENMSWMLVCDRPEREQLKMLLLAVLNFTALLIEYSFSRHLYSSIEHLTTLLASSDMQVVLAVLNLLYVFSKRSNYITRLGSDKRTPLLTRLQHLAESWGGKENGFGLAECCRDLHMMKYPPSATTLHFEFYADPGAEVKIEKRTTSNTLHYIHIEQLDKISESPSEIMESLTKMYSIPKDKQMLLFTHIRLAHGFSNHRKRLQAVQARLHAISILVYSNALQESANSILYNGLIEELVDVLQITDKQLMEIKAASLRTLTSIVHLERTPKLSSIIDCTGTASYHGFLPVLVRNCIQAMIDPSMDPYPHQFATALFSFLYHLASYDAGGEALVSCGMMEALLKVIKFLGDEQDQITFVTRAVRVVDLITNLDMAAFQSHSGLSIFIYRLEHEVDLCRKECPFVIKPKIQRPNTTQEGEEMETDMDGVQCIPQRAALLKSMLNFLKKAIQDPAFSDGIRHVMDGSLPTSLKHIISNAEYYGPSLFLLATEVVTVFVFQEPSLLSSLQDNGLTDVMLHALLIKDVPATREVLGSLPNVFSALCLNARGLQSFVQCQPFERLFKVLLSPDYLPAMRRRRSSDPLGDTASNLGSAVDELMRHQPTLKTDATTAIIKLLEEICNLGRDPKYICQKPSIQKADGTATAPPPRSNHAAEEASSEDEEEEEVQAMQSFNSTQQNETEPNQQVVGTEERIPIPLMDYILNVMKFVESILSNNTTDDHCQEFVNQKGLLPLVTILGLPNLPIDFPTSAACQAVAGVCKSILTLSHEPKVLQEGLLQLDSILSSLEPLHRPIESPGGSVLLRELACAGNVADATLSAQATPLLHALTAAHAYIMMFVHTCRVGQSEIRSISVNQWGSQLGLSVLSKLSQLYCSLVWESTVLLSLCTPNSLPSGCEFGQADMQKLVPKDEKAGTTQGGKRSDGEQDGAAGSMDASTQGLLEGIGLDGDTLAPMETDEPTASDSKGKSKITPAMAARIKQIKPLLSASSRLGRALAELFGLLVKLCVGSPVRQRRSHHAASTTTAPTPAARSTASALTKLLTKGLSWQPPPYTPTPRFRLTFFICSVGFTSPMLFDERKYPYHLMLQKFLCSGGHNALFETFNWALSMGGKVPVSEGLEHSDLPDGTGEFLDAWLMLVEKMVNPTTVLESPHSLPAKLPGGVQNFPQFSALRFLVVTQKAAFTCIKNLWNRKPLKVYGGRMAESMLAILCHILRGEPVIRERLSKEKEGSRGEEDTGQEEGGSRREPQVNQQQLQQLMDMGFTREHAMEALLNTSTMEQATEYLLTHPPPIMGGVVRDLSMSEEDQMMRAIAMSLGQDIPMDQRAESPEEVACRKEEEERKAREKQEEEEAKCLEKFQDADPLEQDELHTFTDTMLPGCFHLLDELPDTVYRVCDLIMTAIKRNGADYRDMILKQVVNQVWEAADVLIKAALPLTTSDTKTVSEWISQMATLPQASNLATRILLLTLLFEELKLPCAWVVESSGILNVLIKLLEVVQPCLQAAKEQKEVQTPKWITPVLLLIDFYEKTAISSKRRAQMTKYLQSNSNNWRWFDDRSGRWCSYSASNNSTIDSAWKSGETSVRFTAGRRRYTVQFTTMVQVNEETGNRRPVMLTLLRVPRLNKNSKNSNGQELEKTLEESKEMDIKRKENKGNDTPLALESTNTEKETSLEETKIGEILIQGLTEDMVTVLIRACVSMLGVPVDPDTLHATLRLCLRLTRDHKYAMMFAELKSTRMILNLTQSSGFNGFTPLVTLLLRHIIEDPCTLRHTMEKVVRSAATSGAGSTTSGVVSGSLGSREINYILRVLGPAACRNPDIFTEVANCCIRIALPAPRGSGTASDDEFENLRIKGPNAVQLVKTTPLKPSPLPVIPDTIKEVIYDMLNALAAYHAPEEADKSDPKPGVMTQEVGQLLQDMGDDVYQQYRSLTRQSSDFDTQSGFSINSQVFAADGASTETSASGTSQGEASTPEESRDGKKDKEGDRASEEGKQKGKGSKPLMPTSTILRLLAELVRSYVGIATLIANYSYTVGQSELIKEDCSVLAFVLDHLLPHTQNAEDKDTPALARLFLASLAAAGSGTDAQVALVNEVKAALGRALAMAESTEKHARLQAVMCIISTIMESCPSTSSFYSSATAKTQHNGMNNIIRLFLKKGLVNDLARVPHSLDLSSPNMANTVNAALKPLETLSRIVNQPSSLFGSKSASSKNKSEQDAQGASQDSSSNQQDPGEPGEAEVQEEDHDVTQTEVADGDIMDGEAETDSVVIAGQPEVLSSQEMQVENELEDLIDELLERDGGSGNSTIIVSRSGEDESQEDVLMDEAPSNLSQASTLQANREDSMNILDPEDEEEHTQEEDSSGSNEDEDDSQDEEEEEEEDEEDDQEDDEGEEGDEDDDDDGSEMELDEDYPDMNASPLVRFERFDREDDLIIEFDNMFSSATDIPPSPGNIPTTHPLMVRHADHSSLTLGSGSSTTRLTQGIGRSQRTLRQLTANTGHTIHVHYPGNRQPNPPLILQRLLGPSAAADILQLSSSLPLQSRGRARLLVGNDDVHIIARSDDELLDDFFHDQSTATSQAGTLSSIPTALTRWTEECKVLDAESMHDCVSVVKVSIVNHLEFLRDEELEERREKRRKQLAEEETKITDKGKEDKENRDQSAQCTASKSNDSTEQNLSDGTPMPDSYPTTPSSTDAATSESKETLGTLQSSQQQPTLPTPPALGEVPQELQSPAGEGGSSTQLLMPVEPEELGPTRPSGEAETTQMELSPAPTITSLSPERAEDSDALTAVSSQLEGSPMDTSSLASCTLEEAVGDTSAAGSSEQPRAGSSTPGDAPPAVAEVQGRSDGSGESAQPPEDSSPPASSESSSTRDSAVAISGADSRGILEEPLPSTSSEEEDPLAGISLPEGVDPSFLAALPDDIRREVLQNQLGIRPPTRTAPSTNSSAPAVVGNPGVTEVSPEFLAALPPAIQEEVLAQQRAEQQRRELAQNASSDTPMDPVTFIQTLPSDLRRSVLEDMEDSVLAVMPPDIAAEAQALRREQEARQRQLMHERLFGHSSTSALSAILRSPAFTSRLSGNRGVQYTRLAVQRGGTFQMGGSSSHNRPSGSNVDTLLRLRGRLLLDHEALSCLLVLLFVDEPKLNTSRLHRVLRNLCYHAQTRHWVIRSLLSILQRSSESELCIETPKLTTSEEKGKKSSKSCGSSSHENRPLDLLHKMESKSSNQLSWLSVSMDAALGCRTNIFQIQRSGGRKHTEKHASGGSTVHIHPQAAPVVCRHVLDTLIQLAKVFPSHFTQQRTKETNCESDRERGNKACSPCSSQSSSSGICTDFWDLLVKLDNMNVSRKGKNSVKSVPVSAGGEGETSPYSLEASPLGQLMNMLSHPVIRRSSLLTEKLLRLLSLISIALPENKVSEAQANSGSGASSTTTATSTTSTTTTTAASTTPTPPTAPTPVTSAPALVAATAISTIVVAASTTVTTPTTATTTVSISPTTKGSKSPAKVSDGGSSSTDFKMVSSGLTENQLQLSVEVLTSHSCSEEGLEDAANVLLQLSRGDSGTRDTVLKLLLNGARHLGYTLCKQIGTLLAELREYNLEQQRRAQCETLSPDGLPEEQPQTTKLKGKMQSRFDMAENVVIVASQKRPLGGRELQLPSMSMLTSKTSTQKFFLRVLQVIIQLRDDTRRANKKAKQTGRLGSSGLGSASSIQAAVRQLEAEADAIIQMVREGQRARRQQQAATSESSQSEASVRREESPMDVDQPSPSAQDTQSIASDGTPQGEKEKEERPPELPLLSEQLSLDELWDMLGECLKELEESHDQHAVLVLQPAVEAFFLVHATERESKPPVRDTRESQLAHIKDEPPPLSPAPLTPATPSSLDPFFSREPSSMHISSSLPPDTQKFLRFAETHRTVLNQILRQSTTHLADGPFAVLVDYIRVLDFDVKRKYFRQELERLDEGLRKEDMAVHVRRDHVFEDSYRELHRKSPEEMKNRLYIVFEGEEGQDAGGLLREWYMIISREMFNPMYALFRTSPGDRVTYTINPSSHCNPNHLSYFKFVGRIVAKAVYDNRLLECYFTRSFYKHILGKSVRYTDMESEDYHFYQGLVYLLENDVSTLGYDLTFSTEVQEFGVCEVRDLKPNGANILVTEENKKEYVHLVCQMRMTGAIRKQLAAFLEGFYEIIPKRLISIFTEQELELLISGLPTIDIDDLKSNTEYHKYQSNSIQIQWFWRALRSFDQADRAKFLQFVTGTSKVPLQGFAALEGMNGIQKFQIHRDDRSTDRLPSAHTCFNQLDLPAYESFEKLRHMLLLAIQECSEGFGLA

B1: sperm-associated antigen 9 (SPAG9) (protein, UniProt O60271 1-1321)
chain: MELEDGVVYQEEPGGSGAVMSERVSGLAGSIYREFERLIGRYDEEVVKELMPLVVAVLENLDSVFAQDQEHQVELELLRDDNEQLITQYEREKALRKHAEEKFIEFEDSQEQEKKDLQTRVESLESQTRQLELKAKNYADQISRLEEREAELKKEYNALHQRHTEMIHNYMEHLERTKLHQLSGSDQLESTAHSRIRKERPISLGIFPLPAGDGLLTPDAQKGGETPGSEQWKFQELSQPRSHTSLKVSNSPEPQKAVEQEDELSDVSQGGSKATTPASTANSDVATIPTDTPLKEENEGFVKVTDAPNKSEISKHIEVQVAQETRNVSTGSAENEEKSEVQAIIESTPELDMDKDLSGYKGSSTPTKGIENKAFDRNTESLFEELSSAGSGLIGDVDEGADLLGMGREVENLILENTQLLETKNALNIVKNDLIAKVDELTCEKDVLQGELEAVKQAKLKLEEKNRELEEELRKARAEAEDARQKAKDDDDSDIPTAQRKRFTRVEMARVLMERNQYKERLMELQEAVRWTEMIRASRENPAMQEKKRSSIWQFFSRLFSSSSNTTKKPEPPVNLKYNAPTSHVTPSVKKRSSTLSQLPGDKSKAFDFLSEETEASLASRREQKREQYRQVKAHVQKEDGRVQAFGWSLPQKYKQVTNGQGENKMKNLPVPVYLRPLDEKDTSMKLWCAVGVNLSGGKTRDGGSVVGASVFYKDVAGLDTEGSKQRSASQSSLDKLDQELKEQQKELKNQEELSSLVWICTSTHSATKVLIIDAVQPGNILDSFTVCNSHVLCIASVPGARETDYPAGEDLSESGQVDKASLCGSMTSNSSAETDSLLGGITVVGCSAEGVTGAATSPSTNGASPVMDKPPEMEAENSEVDENVPTAEEATEATEGNAGSAEDTVDISQTGVYTEHVFTDPLGVQIPEDLSPVYQSSNDSDAYKDQISVLPNEQDLVREEAQKMSSLLPTMWLGAQNGCLYVHSSVAQWRKCLHSIKLKDSILSIVHVKGIVLVALADGTLAIFHRGVDGQWDLSNYHLLDLGRPHHSIRCMTVVHDKVWCGYRNKIYVVQPKAMKIEKSFDAHPRKESQVRQLAWVGDGVWVSIRLDSTLRLYHAHTYQHLQDVDIEPYVSKMLGTGKLGFSFVRITALMVSCNRLWVGTGNGVIISIPLTETNKTSGVPGNRPGSVIRVYGDENSDKVTPGTFIPYCSMAHAQLCFHGHRDAVKFFVAVPGQVISPQSSSSGTDLTGDKAGPSAQEPGSQTPLKSMLVISGGEGYIDFRMGDEGGESELLGEDLPLEPSVTKAERSHLIVWQVMYGNE

target: DAI-TurboID (UniProt Q9H171); test: proximity labelling

binding, binds:
mitogen-activated protein kinase kinase kinase kinase 4 (MAP4K4) (from UniProt O95819 1-1239)
cullin-associated NEDD8-dissociated protein 1 (CAND1) (from UniProt Q86VP6 1-1230)
HECT, UBA, and WWE domain-containing E3 ubiquitin protein ligase 1 (HUWE1) (from UniProt Q7Z6Z7 1-4374)
B1

These are yes or no findings as the source states them, for the method shown. Binding seen in cells or lysates may run through a third protein. These calls come from enrichment with a bait or labelling near it, and not all partners need be listed.
